Data source: PubChem BioAssay AID652272 (Drosophila RNAi Screening Center, 2013)

Aim: 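Genome-wide knock-down search for components of Hedgehog signalling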 (primary screen)
System: Drosophila clone 8 (Cl8) cells
Knock-down reagent: long dsRNA against Drosophila genes
Detection: 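Firefly light from a Hedgehog-responsive ptc promoter reporter and Renilla reference light, both read on a plate reader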
Direction: firefly Hh reporter signal: higher = more ptc reporter light; Renilla reference signal: higher = more Renilla control light
Active means: 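Called a hit if the two-replicate mean z-score lies below -2 or above +3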
Calls: active = hit: reporter lowered or raised; inactive = not a hit
In all, the deposit lists about 21,000 reagents; below is a random part of those with a known target gene and a result. Of all reagents, 503 (2.4%) got an active call. 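Raw plate light values, not normalised; calls rest on replicate z-scores that were not deposited; hits include reporter decreases as well as increases.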 A plus sign joins genes that one reagent is predicted to hit. Reagent sequences are not shown. The record does not give: the amount of reagent, the time to read-out.

| Gene | DRSC id | firefly Hh reporter signal, replicate 1 | firefly Hh reporter signal, replicate 2 | firefly Hh reporter signal, replicate 3 | Renilla reference signal, replicate 1 | Renilla reference signal, replicate 2 | Outcome |
| --- | --- | --- | --- | --- | --- | --- | --- |
| CG32212 + hpRNA:CR33940 | DRSC09618 | 3.38e5 | – | – | 6935 | – | inactive |
| Fit2 (GeneID 39907) | DRSC10908 | 78841 | 76404 | – | 3621 | 3043 | inactive |
| CG11226 (GeneID 40501) | DRSC11639 | 84509 | 1.16e5 | – | 3259 | 2816 | inactive |
| Ist1 (GeneID 38750) | DRSC09697 | 84213 | 1.05e5 | – | 3173 | 3699 | inactive |
| mld (GeneID 2768685) | DRSC13681 | 48395 | 1.47e5 | – | 12328 | 3912 | inactive |
| mld (GeneID 2768685) | DRSC14622 | 87814 | 99008 | – | 3852 | 4592 | inactive |
| CG10912 (GeneID 37059) | DRSC06009 | 1.30e5 | 1.03e5 | – | 6155 | 4578 | inactive |
| Cdk8 (GeneID 39157) | DRSC11113 | 77222 | 35668 | – | 4055 | 1338 | inactive |
| CG34056 (GeneID 38106) | DRSC08374 | 57120 | 46327 | – | 1703 | 3452 | inactive |
| CG12659 (GeneID 50403) | DRSC17862 | 1.07e5 | 3.45e5 | – | 2672 | 9879 | inactive |
| CG18659 (GeneID 35929) | DRSC06784 | 87905 | 57056 | – | 2148 | 4624 | inactive |
| CG7544 (GeneID 36680) | DRSC07023 | 7.46e5 | 1.14e5 | – | 4893 | 4893 | inactive |
| AQP (GeneID 36456) | DRSC06122 | 90215 | 49052 | – | 2307 | 4053 | inactive |
| witty (GeneID 34145) | DRSC02378 | 1.94e5 | 1.29e5 | – | 4771 | 9196 | inactive |
| ND-49L (GeneID 43073) | DRSC14437 | 3.67e5 | 64589 | – | 21393 | 1856 | inactive |
| CCT1 (GeneID 42649) | DRSC16877 | 8.83e5 | 1.53e5 | – | 56362 | 387 | inactive |
| epsilonCOP (GeneID 33908) | DRSC02003 | 95393 | 1.14e5 | – | 3817 | 3537 | inactive |
| eIF3c (GeneID 37005) | DRSC06905 | 38356 | 28214 | – | 1306 | 2240 | inactive |
| Dus2 (GeneID 32377) | DRSC19591 | 1.44e5 | 75109 | – | 3335 | 1907 | inactive |
| Bdp1 (GeneID 34748) | DRSC03192 | 77675 | 42627 | – | 3450 | 2280 | inactive |
| CG4115 (GeneID 41499) | DRSC15545 | 68884 | 1.20e5 | – | 2662 | 3717 | inactive |
| CG18809 (GeneID 59170) | DRSC19818 | 74803 | 1.91e5 | – | 1922 | 7552 | inactive |
| CG2865 (GeneID 31217) | DRSC18527 | 1.29e5 | 1.39e5 | – | 3066 | 3458 | inactive |
| CG2865 (GeneID 31217) | DRSC18528 | 3.50e5 | 46116 | – | 2474 | 2474 | inactive |
| kraken (GeneID 33265) | DRSC00824 | 1.20e5 | 1.14e5 | – | 2822 | 2632 | inactive |
| Jhbp16 (GeneID 42552) | DRSC15039 | 3.60e5 | 1.35e5 | – | 17888 | 2663 | inactive |
| MagR (GeneID 32513) | DRSC20092 | 74899 | 2.30e5 | – | 2634 | 9057 | inactive |
| l(2)k09848 (GeneID 35536) | DRSC04894 | 1.18e5 | 66077 | – | 5648 | 3600 | inactive |
| Or7a (GeneID 31750) | DRSC18691 | 73097 | 4.17e5 | – | 2749 | 13797 | inactive |
| Nse4 (GeneID 34434) | DRSC02239 | 1.05e5 | 86993 | – | 2434 | 7298 | inactive |
| Psa (GeneID 38175) | DRSC08152 | 1.08e5 | 84827 | – | 4996 | 3516 | inactive |
| THG (GeneID 34876) | DRSC01896 | 1.36e5 | 72839 | – | 4032 | 6772 | inactive |
| Agxt (GeneID 31587) | DRSC18718 | 73756 | 61830 | – | 1712 | 1511 | inactive |

Just “firefly Hh reporter signal, replicate 2”, for 8 of the entries above:
CG2865 (GeneID 31217) [DRSC18527]	1.39e5
CG2865 (GeneID 31217) [DRSC18528]	46116
kraken (GeneID 33265) [DRSC00824]	1.14e5
Jhbp16 (GeneID 42552) [DRSC15039]	1.35e5
MagR (GeneID 32513) [DRSC20092]	2.30e5
l(2)k09848 (GeneID 35536) [DRSC04894]	66077
Or7a (GeneID 31750) [DRSC18691]	4.17e5
Nse4 (GeneID 34434) [DRSC02239]	86993

The results go on.
| Gene | DRSC id | firefly Hh reporter signal, replicate 1 | firefly Hh reporter signal, replicate 2 | firefly Hh reporter signal, replicate 3 | Renilla reference signal, replicate 1 | Renilla reference signal, replicate 2 | Outcome |
| --- | --- | --- | --- | --- | --- | --- | --- |
| CG13157 (GeneID 36355) | DRSC06282 | 84759 | 49191 | – | 1914 | 3801 | inactive |
| mRpL20 (GeneID 39477) | DRSC09828 | 30804 | 77604 | 1.02e5 | 5739 | 6579 | inactive |
| TfIIEbeta (GeneID 38527) | DRSC08701 | 84871 | 38564 | – | 2331 | 1081 | inactive |
| Reps (GeneID 34542) | DRSC02940 | 84220 | 77688 | – | 2907 | 6234 | inactive |
| CG32652 (retired record) (GeneID 318141) | DRSC18942 | 8.26e5 | 6.66e5 | 3.79e5 | 46275 | 5510 | inactive |
| Exn (GeneID 39900) | DRSC09673 | 58425 | 71799 | – | 3395 | 3682 | inactive |
| Exn (GeneID 39900) | DRSC10077 | 88576 | – | – | 5346 | 2731 | inactive |
| CG13229 (GeneID 36168) | DRSC06349 | 66914 | 57574 | – | 1033 | 4929 | inactive |
| ksh (GeneID 50363) | DRSC19554 | 1.08e5 | 1.46e5 | – | 4385 | 6816 | inactive |
| CG18132 (GeneID 33333) | DRSC00518 | 1.09e5 | 97555 | – | 2512 | 2567 | inactive |
| CG3632 (GeneID 32589) | DRSC19137 | 5.95e5 | 2.82e5 | – | 29538 | 6834 | inactive |
| CG3632 (GeneID 32589) | DRSC19871 | 96570 | 72347 | – | 1632 | 1243 | inactive |
| CG12499 (GeneID 42637) | DRSC14521 | 2.60e5 | 1.71e5 | – | 17944 | 395 | inactive |
| kri (GeneID 38655) | DRSC10515 | 1.13e5 | 1.01e5 | – | 6188 | 4205 | inactive |
| CG4198 (GeneID 31445) | DRSC18354 | 1.12e5 | 1.08e5 | – | 2576 | 2682 | inactive |
| Paf-AHalpha (GeneID 32529) | DRSC20267 | 67786 | 1.60e5 | – | 2433 | 6645 | inactive |
| roq (GeneID 39818) | DRSC10227 | 93690 | 44523 | – | 3287 | 1517 | inactive |
| D19B (GeneID 38717) | DRSC11134 | 46685 | 37872 | – | 3532 | 2640 | inactive |
| CG13606 (GeneID 42873) | DRSC14609 | 5.69e5 | 1.43e5 | – | 31275 | 4185 | inactive |
| HP1Lcsd (GeneID 12798145) | DRSC03999 | 1.49e5 | 2.15e5 | – | 3670 | 9846 | inactive |
| CG11327 (GeneID 33940) | DRSC02146 | 82380 | 62730 | – | 2266 | 5623 | inactive |
| MsR1 (GeneID 38298) | DRSC08615 | 1.13e5 | 39660 | – | 2711 | 3499 | inactive |
| Pp1-13C (GeneID 48531) | DRSC20269 | 80994 | 2.29e5 | – | 2741 | 9369 | inactive |
| CG6650 (GeneID 39555) | DRSC10685 | 1.21e5 | 53456 | – | 4513 | 1770 | inactive |
| CG14218 (GeneID 32949) | DRSC19575 | 1.66e5 | 6.85e5 | 3.51e5 | 5882 | 4881 | inactive |
| ppk29 (GeneID 37844) | DRSC04205 | 81680 | 72629 | – | 1696 | 6284 | inactive |
| eIF3h (GeneID 45682) | DRSC01995 | 75066 | 58155 | – | 4103 | 2941 | inactive |
| Osi21 (GeneID 34566) | DRSC02408 | 1.35e5 | 92324 | – | 3651 | 6944 | inactive |
| Hs3st-A (GeneID 37161) | DRSC06507 | 56188 | 26316 | – | 3739 | 1339 | inactive |
| Hs3st-A (GeneID 37161) | DRSC06508 | 63238 | 42745 | – | 1878 | 3812 | inactive |
| Hs3st-A (GeneID 37161) | DRSC06509 | 82677 | 65223 | – | 2448 | 4743 | inactive |
| Nlg4 (GeneID 42402) | DRSC15108 | 6.60e5 | 1.20e5 | – | 35868 | 3508 | inactive |
| Nlg4 (GeneID 42402) | DRSC15109 | 4.89e5 | 79305 | – | 26273 | 2093 | inactive |
| Nlg4 (GeneID 42402) | DRSC15700 | 4.79e5 | 71962 | – | 28122 | 2144 | inactive |
| Nlg4 (GeneID 42402) | DRSC15701 | 2.22e5 | 19339 | – | 17522 | 957 | active |
| CG6873 (GeneID 32861) | DRSC20014 | 56961 | 99416 | – | 595 | 5792 | inactive |
| CG13036 (retired record) (GeneID 39823) | DRSC09916 | 93008 | – | – | 5972 | 3152 | inactive |
| CG5550 (GeneID 36883) | DRSC06943 | 63890 | 39386 | – | 1015 | 2633 | inactive |
| MED6 (GeneID 44728) | DRSC16500 | 1.06e5 | 78541 | – | 4081 | 2501 | inactive |
| CG10979 (GeneID 40720) | DRSC12153 | 83448 | 1.04e5 | – | 3575 | 3172 | inactive |
